Test results: publication PMC5506657, “Improvement in phosphate acquisition and utilization by a secretory purple acid phosphatase (OsPAP21b) in rice” (Plant Biotechnology Journal, 2017)

Protein sequences, listed by entry. Tags and fused reporters are not part of them. Lines headed by an entry give the natural chain unless they say otherwise; changes in a name come on top.
UniProt Q6Z156: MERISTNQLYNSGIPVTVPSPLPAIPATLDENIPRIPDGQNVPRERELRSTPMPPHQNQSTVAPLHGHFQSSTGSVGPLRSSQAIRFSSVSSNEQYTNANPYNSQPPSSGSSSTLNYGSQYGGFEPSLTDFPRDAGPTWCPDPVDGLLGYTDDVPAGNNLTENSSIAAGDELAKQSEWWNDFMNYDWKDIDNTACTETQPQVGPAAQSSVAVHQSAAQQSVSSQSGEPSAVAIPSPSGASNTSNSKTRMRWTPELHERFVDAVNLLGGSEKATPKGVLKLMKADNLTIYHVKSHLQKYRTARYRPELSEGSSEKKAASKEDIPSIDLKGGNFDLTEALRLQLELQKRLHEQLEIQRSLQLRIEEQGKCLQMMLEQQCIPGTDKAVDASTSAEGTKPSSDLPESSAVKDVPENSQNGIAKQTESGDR

Columns and labels:
[1] = target: OsPHR2 (Oryza sativa (rice)) (UniProt Q6Z156); test: competition with a labelled probe; details: 400-fold excess unlabelled promoter as self competitor, specificity confirmed; 30 mM KCl, 15 mM HEPES pH 8.0, 0.02 mM DTT, 1 mM MgCl2, 0.2 mM EDTA, 0.6% glycerol, 1 ug poly(dI-dC) in 30 ul; 20 °C, 30 min; 4% gel; recombinant protein; residues 1-426; protein details: 6xHis (pET28a); label: 32P ([alpha-32P]CTP, Megaprime labeling); probe letters rebuilt from the primers and the genome
[2] = target: OsPHR2 (Oryza sativa (rice)) (UniProt Q6Z156); test: EMSA; details: 10 ng probe, 1.5 ug protein, 1 ug poly(dI-dC), 1 mM Mg2+; 30 mM KCl, 15 mM HEPES pH 8.0, 0.02 mM DTT, 1 mM MgCl2, 0.2 mM EDTA, 0.6% glycerol, 1 ug poly(dI-dC) in 30 ul; 20 °C, 30 min; 4% gel; recombinant protein; residues 1-426; protein details: 6xHis (pET28a); label: 32P ([alpha-32P]CTP, Megaprime labeling); probe letters rebuilt from the primers and the genome

AAAAATCCCTGCATCACGCAGCAAAATGCCAACCCCAGCCTACCTATCTCCTTCCTTCCTCCTCCCCACCTCCACCACCACCACCACCGCACACGGCGGCCTCCTCCTCCTCTCCGGCAACCACCGCCGACGATGTCGTCCACGCCACATGCCAGGTGCACGCACGCACGCACGACAGCAAGAGAGAGAGCGGCAAGAAACACCATGGCATATCTCCGAGGATATGCCCTAATCCAAAGTCTTCCTAATTGTTATTAAAATCCTAATGACGTGCAATTATGCTCTCCTCTCCCAGGTCGTCTCCTCCTCCGGGCTCAGCCCAGGCTGGCCACCGATGATGATGGCGACGGCCGCGATGGCGGCGAGCTCGTGCGATCGAGGCGACACGCGTAAGAAGCTGCAGATAACTGTAGTTTTCCTCGT (double strand) [OsPAP21b promoter 423 bp]
binding result [1]: binds
binding result [2]: binds
